Assay in all cases: EMSA
For data set [1], the target named is RBPj (CSL) (Mus musculus) (UniProt P31266). The following applies: RBPj alone, 2.5-640 nM, 1-site state never depleted at high RBPj; EMSA on native polyacrylamide gel; probes 1.75 nM each (mixed), RBPj 2.5-640 nM in 4-fold steps, N1ICD and MAML 2 uM; recombinant protein; residues 53-474.
Data set [2] concerns RBPj (CSL) + N1RAICD (Notch1 RAM-ANK R1974A) + SMT3-MAML1. The conditions noted are these: N1RAICD and MAML 2 uM, RBPj 2.5-640 nM, EMSA on native polyacrylamide gel, probes 1.75 nM each (mixed), RBPj 2.5-640 nM in 4-fold steps, N1ICD and MAML 2 uM, recombinant protein, protein details: SMT3 fusion.
The test system of data set [3] is RBPj (CSL) + N1ICD (Notch1 RAM-ANK) + SMT3-MAML1. The following applies: N1ICD and MAML 2 uM, RBPj 2.5-640 nM, EMSA on native polyacrylamide gel, probes 1.75 nM each (mixed), RBPj 2.5-640 nM in 4-fold steps, recombinant protein, protein details: SMT3 fusion.

By UniProt entry, the sequences of proteins in these tests, tags left out. Residues count along the entry.
UniProt P31266, 53-474: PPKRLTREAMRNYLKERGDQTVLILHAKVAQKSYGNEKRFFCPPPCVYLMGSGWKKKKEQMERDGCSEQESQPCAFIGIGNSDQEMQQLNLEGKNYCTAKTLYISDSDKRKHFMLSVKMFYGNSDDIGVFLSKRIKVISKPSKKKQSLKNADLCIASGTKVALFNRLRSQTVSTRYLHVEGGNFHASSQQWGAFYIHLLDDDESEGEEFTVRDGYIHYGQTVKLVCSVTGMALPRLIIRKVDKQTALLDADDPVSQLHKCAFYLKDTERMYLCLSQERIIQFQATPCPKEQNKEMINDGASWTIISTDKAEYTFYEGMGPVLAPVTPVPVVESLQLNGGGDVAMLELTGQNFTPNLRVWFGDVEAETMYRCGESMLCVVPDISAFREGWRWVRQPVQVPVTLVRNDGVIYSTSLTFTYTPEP

This is an account of results in article PMC7561103.

Construct, isoform or probe ends are uncertain for at least one entry. For some assays here: Weaker means in comparison with the reference protein, sequence or condition of that experiment. For some assays here: The direction of at least one scale is not stated here.

As for “CGAACGTGGGAAACCTAGGCTAGAGGCACCGTGGGAAACTAGTGCGGGCGTGGCT (double strand) [2xCSL]”, the binding result in data set [1], in data set [2] (no cooperative binding) and in data set [3] (no cooperative binding) was “binds” throughout.
As for “GCTACGTGGGAAAGGAGCAAACTGCGTTTCCCACGTTCGTAGTGCGGGCGTGGCT (double strand) [1xSPS]”, the binding result in data set [2] (binds, but no cooperative binding to second site) is given as “binds more weakly”. In addition, the binding signal in data set [3] (cooperativity factor: second site bound 5-fold stronger than first) came to 5 fold.
